In the supplement of paper PMC10849652:
Some of the results follow.

Chains of the proteins cited; added tags and fusions are not shown. Lines headed by an entry give the natural chain unless they say otherwise; changes in a name come on top.
UniProt Q00613: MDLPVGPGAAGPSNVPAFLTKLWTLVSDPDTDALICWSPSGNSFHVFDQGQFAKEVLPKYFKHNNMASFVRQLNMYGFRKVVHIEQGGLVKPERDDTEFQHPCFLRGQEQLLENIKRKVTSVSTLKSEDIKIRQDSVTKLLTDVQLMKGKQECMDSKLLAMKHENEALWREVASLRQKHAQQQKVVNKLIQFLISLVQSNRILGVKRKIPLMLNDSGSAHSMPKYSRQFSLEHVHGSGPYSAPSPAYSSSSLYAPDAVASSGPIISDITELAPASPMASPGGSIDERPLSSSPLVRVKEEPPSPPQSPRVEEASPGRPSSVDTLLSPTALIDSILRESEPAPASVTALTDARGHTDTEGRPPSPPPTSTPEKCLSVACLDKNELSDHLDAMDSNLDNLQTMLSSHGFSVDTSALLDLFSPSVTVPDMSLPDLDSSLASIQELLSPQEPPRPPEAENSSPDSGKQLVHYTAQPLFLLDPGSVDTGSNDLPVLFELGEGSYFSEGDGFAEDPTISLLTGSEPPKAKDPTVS
UniProt P07686: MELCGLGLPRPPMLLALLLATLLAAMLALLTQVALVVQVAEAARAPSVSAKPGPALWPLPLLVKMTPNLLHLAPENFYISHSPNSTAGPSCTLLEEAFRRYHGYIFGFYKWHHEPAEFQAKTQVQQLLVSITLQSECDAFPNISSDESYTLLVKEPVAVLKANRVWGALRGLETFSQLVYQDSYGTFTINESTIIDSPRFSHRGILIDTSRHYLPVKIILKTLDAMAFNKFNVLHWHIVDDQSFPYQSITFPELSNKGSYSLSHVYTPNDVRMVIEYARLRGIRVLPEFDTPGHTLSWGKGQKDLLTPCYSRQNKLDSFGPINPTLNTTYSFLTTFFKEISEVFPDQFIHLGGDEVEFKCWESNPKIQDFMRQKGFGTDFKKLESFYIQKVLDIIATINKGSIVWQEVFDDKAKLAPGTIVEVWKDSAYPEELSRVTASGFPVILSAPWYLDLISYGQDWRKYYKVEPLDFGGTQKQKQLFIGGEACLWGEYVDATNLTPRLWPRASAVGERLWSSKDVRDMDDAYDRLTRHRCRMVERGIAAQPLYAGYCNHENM
UniProt P14866: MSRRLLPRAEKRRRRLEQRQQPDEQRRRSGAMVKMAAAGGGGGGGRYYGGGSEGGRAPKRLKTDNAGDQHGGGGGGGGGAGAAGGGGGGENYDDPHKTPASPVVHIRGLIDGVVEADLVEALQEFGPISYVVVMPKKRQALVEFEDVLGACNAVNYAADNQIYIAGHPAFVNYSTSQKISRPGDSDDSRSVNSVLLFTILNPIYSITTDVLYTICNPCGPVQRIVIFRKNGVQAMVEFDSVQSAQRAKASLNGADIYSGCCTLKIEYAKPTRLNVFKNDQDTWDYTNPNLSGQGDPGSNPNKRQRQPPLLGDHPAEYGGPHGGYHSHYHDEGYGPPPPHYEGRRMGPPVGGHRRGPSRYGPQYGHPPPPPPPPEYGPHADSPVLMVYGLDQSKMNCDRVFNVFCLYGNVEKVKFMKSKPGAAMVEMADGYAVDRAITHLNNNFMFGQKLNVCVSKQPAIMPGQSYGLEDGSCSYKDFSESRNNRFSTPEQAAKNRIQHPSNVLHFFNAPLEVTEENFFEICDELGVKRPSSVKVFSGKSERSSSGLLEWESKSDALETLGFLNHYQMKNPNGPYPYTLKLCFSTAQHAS
UniProt Q14103: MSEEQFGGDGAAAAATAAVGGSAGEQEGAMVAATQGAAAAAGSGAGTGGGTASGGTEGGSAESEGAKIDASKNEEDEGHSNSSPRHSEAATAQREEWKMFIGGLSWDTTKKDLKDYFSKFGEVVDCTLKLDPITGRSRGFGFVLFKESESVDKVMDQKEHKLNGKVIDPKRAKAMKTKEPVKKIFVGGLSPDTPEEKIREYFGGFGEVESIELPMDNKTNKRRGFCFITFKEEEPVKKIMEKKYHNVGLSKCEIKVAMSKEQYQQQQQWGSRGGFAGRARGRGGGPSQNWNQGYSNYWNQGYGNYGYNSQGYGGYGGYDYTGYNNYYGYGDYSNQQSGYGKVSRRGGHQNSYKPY
UniProt Q86VS8: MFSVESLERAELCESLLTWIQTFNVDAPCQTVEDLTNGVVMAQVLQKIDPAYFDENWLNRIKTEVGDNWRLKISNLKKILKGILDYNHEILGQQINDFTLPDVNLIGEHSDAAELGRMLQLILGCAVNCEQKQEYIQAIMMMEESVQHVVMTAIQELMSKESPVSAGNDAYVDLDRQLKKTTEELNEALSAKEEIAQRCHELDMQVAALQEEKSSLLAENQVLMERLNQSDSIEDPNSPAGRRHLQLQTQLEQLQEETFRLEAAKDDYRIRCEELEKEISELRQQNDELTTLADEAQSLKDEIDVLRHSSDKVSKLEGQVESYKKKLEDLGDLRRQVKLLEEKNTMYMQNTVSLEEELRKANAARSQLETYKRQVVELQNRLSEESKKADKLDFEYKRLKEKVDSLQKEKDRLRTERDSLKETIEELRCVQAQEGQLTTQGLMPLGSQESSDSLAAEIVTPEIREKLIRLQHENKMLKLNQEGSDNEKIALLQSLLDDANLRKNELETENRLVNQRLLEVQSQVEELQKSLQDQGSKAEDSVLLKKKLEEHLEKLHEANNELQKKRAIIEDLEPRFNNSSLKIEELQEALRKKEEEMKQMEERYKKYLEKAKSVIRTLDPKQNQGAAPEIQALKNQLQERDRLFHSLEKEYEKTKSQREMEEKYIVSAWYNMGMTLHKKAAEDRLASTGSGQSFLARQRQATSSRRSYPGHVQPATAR
UniProt P48723: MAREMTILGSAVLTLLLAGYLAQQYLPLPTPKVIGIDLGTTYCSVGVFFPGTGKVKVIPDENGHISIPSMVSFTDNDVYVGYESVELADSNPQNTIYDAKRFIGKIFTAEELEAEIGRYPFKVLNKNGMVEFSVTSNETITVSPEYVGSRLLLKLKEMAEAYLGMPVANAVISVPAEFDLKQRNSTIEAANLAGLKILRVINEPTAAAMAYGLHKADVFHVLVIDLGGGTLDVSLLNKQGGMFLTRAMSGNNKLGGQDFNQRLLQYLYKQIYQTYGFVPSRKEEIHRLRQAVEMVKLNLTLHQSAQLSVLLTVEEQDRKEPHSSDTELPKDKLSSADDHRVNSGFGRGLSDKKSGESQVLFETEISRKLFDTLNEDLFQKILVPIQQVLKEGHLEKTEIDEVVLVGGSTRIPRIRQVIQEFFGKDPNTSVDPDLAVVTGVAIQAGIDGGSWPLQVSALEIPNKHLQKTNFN
UniProt Q8TCT9: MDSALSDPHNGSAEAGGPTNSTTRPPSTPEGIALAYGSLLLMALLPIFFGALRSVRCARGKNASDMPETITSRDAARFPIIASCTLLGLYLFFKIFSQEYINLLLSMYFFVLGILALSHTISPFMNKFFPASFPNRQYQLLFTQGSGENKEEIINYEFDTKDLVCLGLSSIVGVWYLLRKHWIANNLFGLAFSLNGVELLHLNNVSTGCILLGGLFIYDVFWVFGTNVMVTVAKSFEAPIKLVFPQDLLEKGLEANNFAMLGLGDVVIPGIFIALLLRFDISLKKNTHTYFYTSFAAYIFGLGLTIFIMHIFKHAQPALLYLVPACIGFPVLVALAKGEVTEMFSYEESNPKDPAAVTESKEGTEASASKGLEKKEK
UniProt Q9BX68: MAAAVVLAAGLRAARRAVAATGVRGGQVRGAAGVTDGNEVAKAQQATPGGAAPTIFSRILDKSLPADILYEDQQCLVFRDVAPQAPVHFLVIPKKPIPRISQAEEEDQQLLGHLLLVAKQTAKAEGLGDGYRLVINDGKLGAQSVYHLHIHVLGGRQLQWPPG
UniProt Q9NQE9: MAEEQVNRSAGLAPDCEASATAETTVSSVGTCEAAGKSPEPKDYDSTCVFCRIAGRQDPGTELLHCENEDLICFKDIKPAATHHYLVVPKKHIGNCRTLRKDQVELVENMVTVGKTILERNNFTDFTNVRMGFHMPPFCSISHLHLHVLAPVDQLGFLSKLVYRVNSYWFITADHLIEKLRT
UniProt Q6DN03, whole entry, looked up: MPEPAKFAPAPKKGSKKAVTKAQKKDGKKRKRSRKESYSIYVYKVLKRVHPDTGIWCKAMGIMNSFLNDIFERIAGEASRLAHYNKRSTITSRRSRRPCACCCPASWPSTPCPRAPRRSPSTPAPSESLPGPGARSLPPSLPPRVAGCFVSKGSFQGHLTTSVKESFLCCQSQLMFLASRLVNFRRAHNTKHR
UniProt Q03014: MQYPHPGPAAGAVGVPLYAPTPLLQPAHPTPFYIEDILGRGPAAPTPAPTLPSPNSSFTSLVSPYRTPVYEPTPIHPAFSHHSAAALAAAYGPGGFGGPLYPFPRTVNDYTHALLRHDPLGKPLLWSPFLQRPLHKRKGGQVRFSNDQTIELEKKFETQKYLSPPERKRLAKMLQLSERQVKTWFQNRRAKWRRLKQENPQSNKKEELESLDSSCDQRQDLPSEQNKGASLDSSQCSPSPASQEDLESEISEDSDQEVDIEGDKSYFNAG
UniProt H0YH80: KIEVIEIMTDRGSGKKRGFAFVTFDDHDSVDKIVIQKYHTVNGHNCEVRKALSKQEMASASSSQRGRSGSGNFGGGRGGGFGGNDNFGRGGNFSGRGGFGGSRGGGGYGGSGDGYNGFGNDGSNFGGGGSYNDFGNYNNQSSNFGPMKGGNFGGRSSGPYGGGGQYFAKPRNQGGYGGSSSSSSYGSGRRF
UniProt Q86YM7: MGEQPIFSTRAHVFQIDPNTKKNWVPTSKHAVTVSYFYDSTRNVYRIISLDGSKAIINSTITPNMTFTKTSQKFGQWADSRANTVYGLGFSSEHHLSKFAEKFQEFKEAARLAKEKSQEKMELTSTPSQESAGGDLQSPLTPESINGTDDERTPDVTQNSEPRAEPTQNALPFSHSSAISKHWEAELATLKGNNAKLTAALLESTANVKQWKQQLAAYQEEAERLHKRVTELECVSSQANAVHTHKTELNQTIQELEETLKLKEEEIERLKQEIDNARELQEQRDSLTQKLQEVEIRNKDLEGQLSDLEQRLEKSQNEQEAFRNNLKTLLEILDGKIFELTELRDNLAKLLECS
UniProt P08238, whole entry, looked up: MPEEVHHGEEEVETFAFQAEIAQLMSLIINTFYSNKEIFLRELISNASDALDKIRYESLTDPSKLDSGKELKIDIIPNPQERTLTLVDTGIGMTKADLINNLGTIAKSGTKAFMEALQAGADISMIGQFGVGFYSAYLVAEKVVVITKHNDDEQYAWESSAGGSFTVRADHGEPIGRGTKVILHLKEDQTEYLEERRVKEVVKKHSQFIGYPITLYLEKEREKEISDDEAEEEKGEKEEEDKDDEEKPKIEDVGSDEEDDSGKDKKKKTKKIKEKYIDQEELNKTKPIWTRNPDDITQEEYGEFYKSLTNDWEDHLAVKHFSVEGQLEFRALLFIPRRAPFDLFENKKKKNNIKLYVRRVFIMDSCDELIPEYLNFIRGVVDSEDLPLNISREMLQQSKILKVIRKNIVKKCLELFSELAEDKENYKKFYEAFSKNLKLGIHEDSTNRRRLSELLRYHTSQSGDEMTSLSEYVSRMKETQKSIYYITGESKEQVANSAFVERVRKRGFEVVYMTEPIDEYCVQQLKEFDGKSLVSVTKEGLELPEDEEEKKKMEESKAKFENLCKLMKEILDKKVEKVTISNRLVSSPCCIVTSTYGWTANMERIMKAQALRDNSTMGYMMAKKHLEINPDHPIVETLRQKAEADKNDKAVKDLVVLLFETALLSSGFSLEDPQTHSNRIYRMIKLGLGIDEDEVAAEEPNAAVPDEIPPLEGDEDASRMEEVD
UniProt Q96FZ2: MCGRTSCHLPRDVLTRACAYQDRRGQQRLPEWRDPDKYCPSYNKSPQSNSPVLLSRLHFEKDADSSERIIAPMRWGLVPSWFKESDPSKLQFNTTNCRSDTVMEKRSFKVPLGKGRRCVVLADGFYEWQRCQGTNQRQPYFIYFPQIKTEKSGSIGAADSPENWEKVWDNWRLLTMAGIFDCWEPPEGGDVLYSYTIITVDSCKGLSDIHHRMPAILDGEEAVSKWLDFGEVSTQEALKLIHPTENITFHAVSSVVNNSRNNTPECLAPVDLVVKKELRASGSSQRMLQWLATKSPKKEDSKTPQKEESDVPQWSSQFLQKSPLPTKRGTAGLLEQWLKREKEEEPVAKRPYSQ
UniProt Q5SSJ5: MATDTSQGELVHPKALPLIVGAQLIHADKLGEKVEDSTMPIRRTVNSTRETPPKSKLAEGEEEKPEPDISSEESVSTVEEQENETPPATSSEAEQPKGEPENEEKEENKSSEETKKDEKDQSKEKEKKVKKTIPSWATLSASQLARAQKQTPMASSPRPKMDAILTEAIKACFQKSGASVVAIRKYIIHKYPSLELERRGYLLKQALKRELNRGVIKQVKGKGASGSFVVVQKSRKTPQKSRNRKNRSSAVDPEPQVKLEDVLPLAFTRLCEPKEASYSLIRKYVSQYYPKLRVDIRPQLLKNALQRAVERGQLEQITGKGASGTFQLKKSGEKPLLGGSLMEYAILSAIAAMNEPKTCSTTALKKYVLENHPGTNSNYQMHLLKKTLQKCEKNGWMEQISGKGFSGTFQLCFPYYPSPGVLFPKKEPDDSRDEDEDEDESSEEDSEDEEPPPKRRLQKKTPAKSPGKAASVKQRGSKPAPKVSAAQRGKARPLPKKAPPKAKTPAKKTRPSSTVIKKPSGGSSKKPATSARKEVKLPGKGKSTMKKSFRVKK

Experiments:
Test in all cases: log2 fold change, soluble protein after heating vs DMSO (PISA); higher = thermal stabilisation; K562 lysate, 10 uM; active = over 0.2 and 3.5 SD of the protein, either way, in both replicates (recomputed)
erlotinib = compound: C#Cc1cccc(Nc2ncnc3cc(OCCOC)c(OCCOC)cc23)c1 [erlotinib]
Summary of the method: (§1)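 Following dounce homogenisation of K562 pellets in PBS pH 7.4 with 1 mM MgCl2, crude extract at 1 mg/mL protein was incubated for 30 min with 10 μM compound. Aliquots were then heated for 3 min over 48°C-58°C and pooled, NP-40 was added to 0.5% at 4°C, and soluble protein was recovered as the supernatant at 21,000xg for 90 min. Channel-sum-equalised TMTpro 16plex LC-MS/MS quantified this protein. Each value, from duplicates, is a log-two fold change in thermal stability relative to solvent controls.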

[1] = compound: C/C(=N\NC(=O)C1=CC(=CC=C1)S(=O)(=O)N2CCOCC2)/C3=C(C=CC(=C3)Cl)O
Summary of the method: as §1

[2] = compound: C1=CC(=CC=C1C2=NC3=C(N2)C=C(C=C3)C(=O)N)OC4=CC=C(C=C4)Cl
Summary of the method: as §1

[3] = compound: C1=CC2=C(C=CC(=C2)/C=C\3/C(=O)NC(=NCC4=CC=CS4)S3)N=C1
Summary of the method: as §1

[4] = compound: C1=CC2=NC=CN=C2C=C1/C=C/3\C(=O)NC(=O)S3
Summary of the method: as §1

[5] = compound: C1=CC=C(C=C1)C2=NC(=C(N2)C3=CC=NC=C3)C4=CC(=C(C=C4)Cl)O
Summary of the method: as §1

[6] = compound: C1=CC=C2C(=C1)C3=NNC4=CC=CC(=C43)C2=O
Summary of the method: as §1

[7] = compound: C1CCN(C1)C(=O)NC2=CC=CC(=C2)NC3=NC=C(C(=N3)NCCC4=CN=CN4)Br
Summary of the method: as §1

[8] = compound: C1CN(CCC1(CC2=CC=C(C=C2)Cl)N)C3=NC=NC4=C3C=CN4
Summary of the method: as §1

IRAK-1-4 Inhibitor I = compound: C1COCCN1CCN2C3=CC=CC=C3N=C2NC(=O)C4=CC(=CC=C4)[N+](=O)[O-] [IRAK-1-4 Inhibitor I]
Summary of the method: as §1

Measured: log2 fold change

HSF1 (UniProt Q00613)
inactive: erlotinib 0.035 | [1] 0.013 | [2] -0.055 | [3] 0.016 | [4] 0.033 | [5] 0.035 | [6] 0 | [7] -0.037 | [8] -0.012 | IRAK-1-4 Inhibitor I -0.019

HINT1 (UniProt P49773)
inactive: erlotinib -0.05 | [1] 0.043 | [2] -0.046 | [3] 0.03 | [4] -0.006 | [5] -0.016 | [6] -0.078 | [7] -0.045 | [8] 0.021 | IRAK-1-4 Inhibitor I -0.045

HNRNPDL (UniProt O14979)
inactive: erlotinib -0.013 | [1] 0.026 | [2] 0.009 | [3] -0.008 | [4] 0.024 | [5] 0.038 | [6] 0.008 | [7] 0.006 | [8] 0.014 | IRAK-1-4 Inhibitor I -0.008

HIBCH (UniProt Q6NVY1)
inactive: erlotinib -0.024 | [1] -0.051 | [2] 0.037 | [3] -0.007 | [4] -0.006 | [5] 0.023 | [6] 0.018 | [7] -0.011 | [8] 0.023 | IRAK-1-4 Inhibitor I 0.017

HEXB (UniProt P07686)
inactive: erlotinib -0.017 | [1] 0.032 | [2] 0.004 | [3] 0.012 | [4] 0.004 | [5] -0.028 | [6] 0.008 | [7] 0.003 | [8] -0.013 | IRAK-1-4 Inhibitor I -0.007

HNRNPL (UniProt P14866)
inactive: erlotinib 0.054 | [1] 0.073 | [2] 0.022 | [3] -0.007 | [4] 0.013 | [5] 0.033 | [6] -0.041 | [7] -0.017 | [8] -0.003 | IRAK-1-4 Inhibitor I 0.014

HELB (UniProt Q8NG08)
inactive: erlotinib 0.043 | [1] -0.076 | [2] 0.029 | [3] -0.01 | [4] -0.009 | [5] 0.069 | [6] 0.035 | [7] 0.107 | [8] 0.03 | IRAK-1-4 Inhibitor I -0.034

HNRNPD isoform 3 (UniProt Q14103)
inactive: erlotinib -0.056 | [1] -0.133 | [2] -0.1 | [3] -0.181 | [4] -0.036 | [5] -0.11 | [6] 0.021 | [7] 0.108 | [8] -0.043 | IRAK-1-4 Inhibitor I -0.057

HSD17B10 (UniProt Q99714)
inactive: erlotinib 0.018 | [1] -0.044 | [2] 0.035 | [3] -0.023 | [4] 0.01 | [5] 0.016 | [6] -0.054 | [7] -0.03 | [8] 0.054 | IRAK-1-4 Inhibitor I 0.012

HOOK3 (UniProt Q86VS8)
inactive: erlotinib -0.013 | [1] 0.03 | [2] 0.008 | [3] -0.026 | [4] -0.022 | [5] -0.022 | [6] -0.009 | [7] -0.016 | [8] -0.02 | IRAK-1-4 Inhibitor I 0

HECTD1 (UniProt Q9ULT8)
inactive: erlotinib 0.034 | [1] 0.01 | [2] 0.009 | [3] -0.033 | [4] 0 | [5] 0.008 | [6] -0.008 | [7] -0.018 | [8] -0.001 | IRAK-1-4 Inhibitor I -0.001

HSPA13 (UniProt P48723)
inactive: erlotinib -0.009 | [1] 0.023 | [2] -0.04 | [3] 0.025 | [4] 0.007 | [5] -0.03 | [6] -0.011 | [7] 0.007 | [8] -0.025 | IRAK-1-4 Inhibitor I -0.004

HM13 (UniProt Q8TCT9)
inactive: erlotinib 0.053 | [1] -0.062 | [2] -0.033 | [3] 0.035 | [4] -0.07 | [5] -0.005 | [6] -0.073 | [7] -0.012 | [8] 0.03 | IRAK-1-4 Inhibitor I 0.061

HNRNPA2B1 (UniProt P22626)
inactive: erlotinib 0.002 | [1] 0.035 | [2] 0.017 | [3] 0.001 | [4] -0.022 | [5] -0.011 | [6] -0.015 | [7] -0.011 | [8] 0.003 | IRAK-1-4 Inhibitor I 0.005

HMBS (UniProt P08397)
inactive: erlotinib 0 | [1] -0.009 | [2] 0.014 | [3] 0.012 | [4] -0.009 | [5] 0.017 | [6] 0.042 | [7] 0.023 | [8] -0.022 | IRAK-1-4 Inhibitor I 0.022

HINT2 (UniProt Q9BX68)
inactive: erlotinib -0.044 | [1] 0.063 | [2] -0.07 | [3] 0.052 | [4] -0.018 | [5] -0.09 | [6] 0.049 | [7] -0.011 | [8] 0.027 | IRAK-1-4 Inhibitor I -0.077

HINT3 (UniProt Q9NQE9)
inactive: erlotinib 0.034 | [1] -0.026 | [2] 0.04 | [3] 0.048 | [4] -0.038 | [5] 0.06 | [6] 0.076 | [7] 0.014 | [8] -0.046 | IRAK-1-4 Inhibitor I 0.026

2 entries picked at random from those above, as already listed:
HNRNPL (UniProt P14866)
inactive: erlotinib 0.054 | [1] 0.073 | [2] 0.022 | [3] -0.007 | [4] 0.013 | [5] 0.033 | [6] -0.041 | [7] -0.017 | [8] -0.003 | IRAK-1-4 Inhibitor I 0.014

HELB (UniProt Q8NG08)
inactive: erlotinib 0.043 | [1] -0.076 | [2] 0.029 | [3] -0.01 | [4] -0.009 | [5] 0.069 | [6] 0.035 | [7] 0.107 | [8] 0.03 | IRAK-1-4 Inhibitor I -0.034

More records follow.

HIST2H2BC (UniProt Q6DN03)
inactive: erlotinib -0.036 | [1] 0.144 | [2] 0.001 | [3] 0.006 | [4] 0.061 | [5] 0.007 | [6] -0.012 | [7] 0.043 | [8] 0.04 | IRAK-1-4 Inhibitor I -0.028

HIBADH (UniProt P31937)
inactive: erlotinib 0.045 | [1] -0.01 | [2] 0 | [3] -0.032 | [4] 0.015 | [5] -0.07 | [6] -0.008 | [7] 0.029 | [8] 0.025 | IRAK-1-4 Inhibitor I 0

HHEX (UniProt Q03014)
inactive: erlotinib -0.04 | [1] 0.081 | [2] 0.036 | [3] -0.131 | [4] -0.045 | [5] -0.1 | [6] 0.142 | [7] -0.024 | [8] -0.074 | IRAK-1-4 Inhibitor I 0.092

HMG20B (UniProt Q9P0W2)
inactive: erlotinib -0.002 | [1] 0.076 | [2] 0.058 | [3] 0.053 | [4] 0.016 | [5] 0.02 | [6] -0.112 | [7] -0.074 | [8] -0.006 | IRAK-1-4 Inhibitor I 0.017

HNRNPA1 (UniProt H0YH80)
inactive: erlotinib -0.003 | [1] -0.036 | [2] 0.063 | [3] -0.06 | [4] -0.064 | [5] 0.075 | [6] 0.084 | [7] 0.023 | [8] -0.007 | IRAK-1-4 Inhibitor I -0.016

HOMER1 (UniProt Q86YM7)
inactive: erlotinib -0.018 | [1] 0 | [2] 0.015 | [3] 0.016 | [4] 0.037 | [5] 0.001 | [6] 0.001 | [7] 0.086 | [8] 0.082 | IRAK-1-4 Inhibitor I 0.036

HNRNPK isoform 3 (UniProt P61978)
inactive: erlotinib -0.004 | [1] 0.15 | [2] -0.044 | [3] -0.03 | [4] 0.039 | [5] 0.061 | [6] 0.007 | [7] 0.067 | [8] 0.03 | IRAK-1-4 Inhibitor I -0.019

HSP90AB1 (UniProt P08238)
inactive: erlotinib -0.002 | [1] -0.014 | [2] 0.014 | [3] 0.004 | [4] -0.021 | [5] 0.005 | [6] 0.065 | [7] 0.003 | [8] -0.003 | IRAK-1-4 Inhibitor I -0.015

HMCES (UniProt Q96FZ2)
inactive: erlotinib 0.049 | [1] -0.035 | [2] 0.099 | [3] 0.067 | [4] -0.045 | [5] 0.014 | [6] -0.062 | [7] -0.051 | [8] -0.012 | IRAK-1-4 Inhibitor I 0

HNRNPH3 (UniProt P31942)
inactive: erlotinib 0.089 | [1] 0.044 | [2] 0.067 | [3] -0.009 | [4] 0.003 | [5] 0.003 | [6] 0.014 | [7] 0.032 | [8] -0.003 | IRAK-1-4 Inhibitor I 0.014

HMMR isoform 3 (UniProt O75330)
inactive: erlotinib -0.034 | [1] 0.007 | [2] -0.01 | [3] 0.009 | [4] -0.016 | [5] 0.006 | [6] 0.021 | [7] -0.015 | [8] -0.017 | IRAK-1-4 Inhibitor I -0.01

HP1BP3 (UniProt Q5SSJ5)
inactive: erlotinib -0.007 | [1] -0.038 | [2] -0.012 | [3] 0.026 | [4] -0.008 | [5] -0.009 | [6] -0.004 | [7] 0.011 | [8] 0.014 | IRAK-1-4 Inhibitor I -0.003

HSP90AB4P (UniProt Q58FF6)
inactive: erlotinib 0.062 | [1] 0.071 | [2] -0.113 | [3] -0.029 | [4] -0.258 | [5] 0.086 | [6] -0.091 | [7] -0.148 | [8] 0.04 | IRAK-1-4 Inhibitor I 0.009
